Assay results taken from article PMC12343876.
Results are given in words; binding and its absence hold for the method and conditions named. Binding seen in cells or lysates may run through a third protein. Some entries that bind do so weakly or less than the wild type.

Chains of the proteins cited; added tags and fusions are not shown. Residues count along the entry.
UniProt O00429: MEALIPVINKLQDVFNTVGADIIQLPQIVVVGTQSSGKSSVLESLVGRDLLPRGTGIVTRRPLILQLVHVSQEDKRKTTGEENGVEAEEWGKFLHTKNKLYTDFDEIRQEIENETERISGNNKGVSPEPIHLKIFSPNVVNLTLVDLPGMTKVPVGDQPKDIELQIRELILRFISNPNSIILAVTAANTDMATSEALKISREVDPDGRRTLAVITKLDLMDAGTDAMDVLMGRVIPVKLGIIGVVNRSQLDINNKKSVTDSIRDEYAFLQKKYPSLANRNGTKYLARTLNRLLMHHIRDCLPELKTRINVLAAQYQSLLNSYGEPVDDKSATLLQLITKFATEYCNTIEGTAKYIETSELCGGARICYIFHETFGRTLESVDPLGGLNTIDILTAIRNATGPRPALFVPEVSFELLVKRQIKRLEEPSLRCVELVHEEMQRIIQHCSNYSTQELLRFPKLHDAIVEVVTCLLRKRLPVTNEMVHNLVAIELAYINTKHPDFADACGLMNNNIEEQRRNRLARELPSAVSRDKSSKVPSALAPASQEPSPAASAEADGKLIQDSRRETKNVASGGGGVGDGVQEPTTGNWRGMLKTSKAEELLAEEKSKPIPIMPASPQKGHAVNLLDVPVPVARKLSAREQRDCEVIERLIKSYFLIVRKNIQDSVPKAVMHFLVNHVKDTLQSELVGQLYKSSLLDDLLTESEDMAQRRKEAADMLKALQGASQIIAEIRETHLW
UniProt P63165, residues 1-97: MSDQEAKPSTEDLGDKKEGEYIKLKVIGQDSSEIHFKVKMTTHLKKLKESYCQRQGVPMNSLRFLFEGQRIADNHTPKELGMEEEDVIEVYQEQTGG

Molecular target: Dynamin-related protein 1 (Drp1) (human (endogenous in primary nucleus pulposus cells)) (UniProt O00429)
Test: co-IP; anti-Drp1 antibody with Protein A/G magnetic beads, 4 °C overnight, NP-40 lysates of human NPCs; blot for SUMO1; cells with or without MAPL overexpression and TNF-α (10 ng/mL, 24 h)

In the case of “Small ubiquitin-like modifier 1 (SUMO1) (from UniProt P63165 1-97)”, the binding is reported as “binds”.
